Test results taken from paper PMC7935581.
No constants are given. Whether binding was seen depends on the method and setting. Binding seen in cells or lysates may run through a third protein. Some entries that bind do so weakly or less than the wild type.

Amino acid sequences for entries named in this document (tags omitted). Residues count along the entry.
UniProt Q96P20: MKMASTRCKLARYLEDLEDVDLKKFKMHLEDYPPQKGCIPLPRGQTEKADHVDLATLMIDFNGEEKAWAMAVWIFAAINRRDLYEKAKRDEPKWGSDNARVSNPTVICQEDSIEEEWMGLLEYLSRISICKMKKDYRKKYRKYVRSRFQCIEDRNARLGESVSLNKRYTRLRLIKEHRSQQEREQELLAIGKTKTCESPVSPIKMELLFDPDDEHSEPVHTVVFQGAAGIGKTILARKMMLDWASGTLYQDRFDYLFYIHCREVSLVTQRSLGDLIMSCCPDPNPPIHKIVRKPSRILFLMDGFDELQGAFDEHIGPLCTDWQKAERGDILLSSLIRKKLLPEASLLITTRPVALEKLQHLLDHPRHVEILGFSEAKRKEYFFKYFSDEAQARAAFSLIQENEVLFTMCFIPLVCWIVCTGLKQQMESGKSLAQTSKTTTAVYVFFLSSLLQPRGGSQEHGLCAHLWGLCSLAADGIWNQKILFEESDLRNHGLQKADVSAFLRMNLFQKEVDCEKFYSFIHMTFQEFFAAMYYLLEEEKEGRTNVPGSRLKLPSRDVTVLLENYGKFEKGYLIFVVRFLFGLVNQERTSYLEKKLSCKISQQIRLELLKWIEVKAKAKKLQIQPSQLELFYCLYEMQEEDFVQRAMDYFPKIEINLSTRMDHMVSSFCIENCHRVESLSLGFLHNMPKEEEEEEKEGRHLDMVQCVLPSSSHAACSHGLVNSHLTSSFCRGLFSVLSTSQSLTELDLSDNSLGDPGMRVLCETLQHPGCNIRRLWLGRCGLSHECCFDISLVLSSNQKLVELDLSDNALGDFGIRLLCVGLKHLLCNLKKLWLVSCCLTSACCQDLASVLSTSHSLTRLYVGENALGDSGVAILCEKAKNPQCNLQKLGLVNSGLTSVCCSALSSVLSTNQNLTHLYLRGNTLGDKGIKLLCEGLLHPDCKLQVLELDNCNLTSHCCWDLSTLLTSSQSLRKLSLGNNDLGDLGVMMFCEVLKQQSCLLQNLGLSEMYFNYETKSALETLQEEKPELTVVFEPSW
UniProt O00206, residues 24-839: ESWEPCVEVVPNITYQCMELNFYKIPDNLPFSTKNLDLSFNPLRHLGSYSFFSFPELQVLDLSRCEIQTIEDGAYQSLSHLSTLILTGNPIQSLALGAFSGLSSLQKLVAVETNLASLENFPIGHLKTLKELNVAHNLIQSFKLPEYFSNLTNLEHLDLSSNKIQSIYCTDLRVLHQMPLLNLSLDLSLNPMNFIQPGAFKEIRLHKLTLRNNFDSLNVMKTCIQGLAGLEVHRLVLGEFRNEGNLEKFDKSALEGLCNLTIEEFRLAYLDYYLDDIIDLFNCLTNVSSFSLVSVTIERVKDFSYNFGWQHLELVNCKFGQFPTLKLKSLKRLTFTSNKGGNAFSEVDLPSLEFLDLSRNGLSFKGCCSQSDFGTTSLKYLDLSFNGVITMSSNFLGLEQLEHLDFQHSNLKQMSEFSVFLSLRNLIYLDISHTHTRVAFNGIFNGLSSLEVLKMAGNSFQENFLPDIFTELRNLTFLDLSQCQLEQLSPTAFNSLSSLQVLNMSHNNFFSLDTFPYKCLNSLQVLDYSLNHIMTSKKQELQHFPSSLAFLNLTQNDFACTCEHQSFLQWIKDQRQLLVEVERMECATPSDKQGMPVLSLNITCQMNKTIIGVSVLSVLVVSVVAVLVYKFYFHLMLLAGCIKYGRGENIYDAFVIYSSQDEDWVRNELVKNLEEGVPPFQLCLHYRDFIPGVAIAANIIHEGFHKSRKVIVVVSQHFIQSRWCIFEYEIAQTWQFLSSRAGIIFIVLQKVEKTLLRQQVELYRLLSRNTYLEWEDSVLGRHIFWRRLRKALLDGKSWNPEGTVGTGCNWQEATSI

Biological target: nucleotide-binding domain leucine-rich repeat containing protein 3 (NLRP3) (human (endogenous in platelets)) (UniProt Q96P20)
Assay: co-IP; human platelets treated with or without resveratrol (100 uM, 10 min), then ox-LDL (0.1 mg/ml, 10 min); lysed in RIPA buffer; lysate with 1 ug anti-phosphorylated Syk or anti-NLRP3 monoclonal antibody at 4°C for 1 h, protein A/G beads overnight at 4°C; immunoblot; normal rabbit IgG as nonimmune control

Question: For “Toll-like receptor 4 (TLR4) (from UniProt O00206 24-839)”, which binding is on record?
Answer: The binding was “binds”.
